Data on 61 molecules can be found in article PMC12670160, “A drug-repurposing screen of FDA- and EMA-approved drugs identifies two NF-κB inhibitors active against eumycetoma” (Journal of Antimicrobial Chemotherapy, 2025).

SMILES strings stand for the structures. Where a name gives a salt, the structure may show the parent alone. About 130 (2.5%) of roughly 5,300 compounds showed an effect of 50% or more. Some of the results follow.

The assay deals with M. mycetomatis strain mm55. The conditions noted are these: primary screen, metabolic activity vs growth control; 96 h, 2 µM; inhibitor.
As for `CCCC(CCC)C(=O)Nc1ccn([C@@H]2O[C@H](CO)[C@@H](O)C2(F)F)c(=O)n1` [ONC0000963, ly2334737], the “% viability” value is given as 78.95%.

`CCCCCCCCCCCCCCCCCC(=O)OCC(O)[C@H]1OC[C@H](O)[C@H]1O` (stereo partly shown) [ONC0002989, sorbitanmonostearate]: the “% viability” value came to 79.74%.

`O=C(O)c1cc(/N=N/c2ccc(O)c(C(=O)O)c2)ccc1O` [ONC0000450, olsalazine sodium]: the “% viability” value is 85.91%.

Regarding `CC(=O)NCCCS(=O)(=O)O` [ONC0004105, acamprosate calcium], the “% viability” value is reported as 129.5%.

Consider `Cc1c(N)nc([C@H](CC(N)=O)NC[C@H](N)C(N)=O)nc1C(=O)N[C@H](C(=O)N[C@H](C)[C@@H](O)[C@H](C)C(=O)N[C@H](C(=O)NCCc1nc(-c2nc(C(=O)NCCCNCCCCN)cs2)cs1)[C@@H](C)O)[C@@H](O[C@@H]1O[C@@H](CO)[C@@H](O)[C@H](O)[C@@H]1O[C@@H]1O[C@H](CO)[C@@H](O)[C@H](OC(N)=O)[C@@H]1O)c1cnc[nH]1` [ONC0002990, bleomycetin], for which the “% viability” value was found to be 3.217%.

`COc1cc2c(=O)c(-c3ccc(O)cc3)coc2cc1O` [ONC0003860, glycitein]: the “% viability” value came out at 66.71%.

Take `C/C=C1\C(=O)C[C@H]2[C@@H]3CCC4=CC(=O)CC[C@]4(C)[C@H]3CC[C@]12C` [ONC0001265, gr235]: the “% viability” value came out at 85.08%.

`CN(C)CC(=O)Nc1ccc2[nH]c(=O)c3ccccc3c2c1` [ONC0001831, pj34 hydrochloride]: the “% viability” value amounted to 108.2%.

`CC(C(=O)OC1CC2CCC(C1)N2C)c1ccc(Br)cc1` (stereo not shown) [ONC0000036, pg9]: the “% viability” value came to 95.75%.

Consider `CNC(=O)c1cc(Oc2ccc(NC(=O)Nc3ccc(Cl)c(C(F)(F)F)c3)c(F)c2)ccn1` [ONC0004706, regorafenib bay 734506], for which the “% viability” value stood at 107.3%.

On to `O=C(O[C@H]1C[C@H]2CC[C@@H](C1)[N+]21CCCC1)C(O)(c1ccccc1)c1ccccc1` [ONC0005218, trospium chloride sanctura], for which the “% viability” value was found to be 139%.

Turning to `CC(C)(C)NCC(O)COc1cccc2c1CCC(=O)N2` (stereo not shown) [ONC0000983, carteolol hydrochloride], the “% viability” value is recorded as 72%.

Take `N#Cc1cc2c(OCC(O)CN3CCN(C(c4ccccc4)c4ccccc4)CC3)cccc2[nH]1` (stereo not shown) [ONC0003436, sdz201 106]: the “% viability” value is listed as 52.03%.

As to `CC(C)NCC(O)COc1ccccc1-n1cccc1` (stereo not shown) [ONC0002641, isamoltane], the “% viability” value is listed as 68.8%.

Regarding `CNC[C@H](O)c1ccc(O)c(O)c1` [ONC0000669, epinephrine bitartrate], the “% viability” value was found to be 159.5%.

On to `O=C(NCc1ccccc1)c1csc(Nc2ccncn2)n1` [ONC0004852, thiazovivin], for which the “% viability” value came out at 84.03%.

With `C=CC(=O)Nc1cc2c(Nc3ccc(F)c(Cl)c3)ncnc2cc1OCCCN1CCOCC1` [ONC0004577, ci1033 canertinib], the “% viability” value is on record as 79.34%.

Take `Nc1cc(Cl)c(N=C2NCCN2)c(Cl)c1` [ONC0003355, apraclonidine]: the “% viability” value amounted to 59.86%.

Take `NCC(CS(=O)(=O)O)c1ccc(Cl)cc1` (stereo not shown) [ONC0001443, saclofen]: the “% viability” value is 70.24%.

In the case of `CC1(C)[C@@H]2C[C@H]1[C@@](C)(O)[C@@H](O)C2` [ONC0005321, pinanediol], the “% viability” value is given as 118.6%.

In the case of `CC(S)C(=O)NCC(=O)O` (stereo not shown) [ONC0005336, tiopronin], the “% viability” value stood at 75.05%.

With `COc1ccc(OC)c(C(O)CNC(=O)CN)c1` (stereo not shown) [ONC0002895, midodrine hydrochloride], the “% viability” value is reported as 90.3%.

Regarding `CO[C@H]1CC[C@@H](C(=O)c2ccc3nc4c(cc3c2)CCCO4)CC1` [ONC0003582, jnj16259685], the “% viability” value stood at 123%.

For `COC(=O)Nc1nc2ccc(C(=O)c3cccs3)cc2[nH]1` [ONC0000832, nocodazole], the “% viability” value is given as 65.92%.

Regarding `Nc1ccn([C@@H]2C(F)=C(CO)[C@@H](O)[C@H]2O)c(=O)n1` [ONC0005434, rx3117], the “% viability” value worked out at 88.23%.

In the case of `CN1CCN(CCCN2c3ccccc3Sc3ccc(C(F)(F)F)cc32)CC1` [ONC0003239, trifluoperazine hydrochloride], the “% viability” value is 119.8%.

For `CCCCCCCCCCCCCCCCCCN(CCCCCCCCCCCCCCCCCC)CCCN(CCO)CCO` [ONC0003941, avridine], the “% viability” value is on record as 89.03%.

For `N#Cc1cccc(-c2c[nH]c3ncnc(N4CCOCC4)c23)c1` [ONC0001009, pf06447475], the “% viability” value came to 99.29%.

Regarding `O=C(CCc1ccc(O)cc1)c1c(O)cc(O)cc1O` [ONC0005262, phloretin], the “% viability” value is 144.8%.

`O=c1[nH]c2cc([N+](=O)[O-])c([N+](=O)[O-])cc2[nH]c1=O` [ONC0001451, dnqx]: the “% viability” value is 73.5%.

As to `NC(=O)c1cccc2cn(-c3ccc([C@@H]4CCCNC4)cc3)nc12` [ONC0001051, niraparib], the “% viability” value was 84.35%.

In the case of `O=c1cc(N2CCOCC2)nc2c3ccccc3ccn12` [ONC0000183, compound401], the “% viability” value worked out at 76.29%.

Consider `O=C(c1ccccc1)C(O)c1ccccc1` (stereo not shown) [ONC0003782, benzoin], for which the “% viability” value came to 96.78%.

`CC[C@@H](C(N)=O)N1CCCC1=O` [ONC0004079, levetiracetam]: the “% viability” value was 91.88%.

In the case of `CC(=O)NS(=O)(=O)c1ccc(NC(=O)c2ccccc2C(=O)O)cc1` [ONC0003990, phthalylsulfacetamide], the “% viability” value amounted to 74.66%.

Take `C=CCN1CCc2nc(N)sc2CC1` [ONC0001170, talipexole dihydrochloride]: the “% viability” value is on record as 113%.

With `COc1cc2c(cc1OC)CN(C(=O)/C=C/c1c(-c3ccccc3)n(C)c3ncccc13)CC2` [ONC0003581, sis3], the “% viability” value is reported as 130.5%.

On to `COc1ccc2cc(-c3cc(-c4cc(Cl)cc(Cl)c4)nn3[C@@H](C)c3ccc(C(=O)NCCC(=O)O)cc3)ccc2c1` [ONC0002086, mk 0893], for which the “% viability” value was 59.82%.

Turning to `CC(=O)NC1[C@@H](O)OC(CO)[C@@H](O)[C@H]1O` (stereo partly shown) [ONC0002960, nacetylmannosamine], the “% viability” value was 104.5%.

Turning to `CO[C@@H]1[C@H](N(C)C(=O)c2ccccc2)C[C@H]2O[C@]1(C)n1c3ccccc3c3c4c(c5c6ccccc6n2c5c31)C(=O)NC4` [ONC0003481, pkc412 midostaurin], the “% viability” value is reported as 56.44%.

Regarding `CC(C)Cn1cnc2c1c(=O)n(C)c(=O)n2C` [ONC0003457, isbufylline], the “% viability” value stood at 84.25%.

Turning to `CC(C)(C#N)c1cc(Cn2cncn2)cc(C(C)(C)C#N)c1` [ONC0004081, anastrozole], the “% viability” value is on record as 146%.

`Cc1csc2c(N[C@@H](C)CN3CCN(S(=O)(=O)c4ccc(Cl)c(Cl)c4)CC3)ncnc12` [ONC0001129, lpa2 antagonist 1]: the “% viability” value stood at 45.06%.

Take `C[C@@H](O)[C@H]1C(=O)N2C(C(=O)O)=C(S[C@@H]3CN[C@H](CNS(N)(=O)=O)C3)[C@H](C)[C@H]12` [ONC0001829, doripenem monohydrate]: the “% viability” value came out at 88.72%.

With `COc1cccc(-c2cc(=O)c3ccccc3o2)c1N` [ONC0001348, pd98059], the “% viability” value is 99.72%.

With `CC(=O)c1ccc2c(c1)N(CCCN(C)C)c1ccccc1S2` [ONC0004160, acepromazine maleate], the “% viability” value was 77.83%.

Consider `CC(=O)OC[C@H](N)C(=O)O.Cl` [ONC0000420, oacetyllserine hcl], for which the “% viability” value was determined as 77.43%.

For `C[C@@H]1CC[C@@]2(OC1)O[C@H]1C[C@H]3[C@@H]4CC=C5C[C@H](O[C@@H]6O[C@@H](CO)[C@@H](O[C@@H]7O[C@@H](C)[C@H](O)[C@@H](O)[C@@H]7O)[C@H](O)[C@H]6O[C@@H]6O[C@@H](C)[C@H](O)[C@@H](O)[C@H]6O)CC[C@]5(C)[C@@H]4CC[C@]3(C)[C@@H]1[C@H]2C` [ONC0004349, dioscin collettiside iii], the “% viability” value came out at 88.26%.

`O=C(CCn1cnc2c(=O)[nH]cnc21)Nc1ccc(C(=O)O)cc1` [ONC0005387, leteprinim]: the “% viability” value was 88.09%.

With `COc1cccc(N2CCN(C3=Nc4c(F)cccc4[C@H](CC(=O)O)N3c3cc(C(F)(F)F)ccc3OC)CC2)c1` [ONC0000806, letermovir], the “% viability” value is on record as 78.78%.

With `CN(C)CCOC(C)(c1ccccc1)c1ccccn1` (stereo not shown) [ONC0000671, doxylamine succinate], the “% viability” value turned out to be 142.6%.

For the molecule `CNC(=O)c1cccc(-c2ccc3c(N4CCOC[C@@H]4C)nc(N4CCOC[C@@H]4C)nc3n2)c1` [ONC0005277, vistusertib azd2014], the “% viability” value is 121.5%.

As for `C=CCNC(N)=S` [ONC0005302, allylthiourea], the “% viability” value was 88.44%.

As to `COC(=O)/C=C/c1cc(O)ccc1O` [ONC0001421, erbstatinanalog], the “% viability” value is 83.71%.

With `COc1ccccc1OCC(O)CNC(C)C` (stereo not shown) [ONC0003655, moprolol], the “% viability” value is recorded as 69.09%.

On to `Nc1ccn([C@H]2CC[C@@H](CO)O2)c(=O)n1` [ONC0003905, zalcitabine], for which the “% viability” value stood at 70.49%.

Consider `CC(C)OC(=O)N1CCC(Oc2ncnc3c2cnn3-c2ccc(S(C)(=O)=O)cc2F)CC1` [ONC0001197, apd668], for which the “% viability” value was found to be 88.83%.

In the case of `O=C1c2ccccc2NC2=CCCCCN12` [ONC0003231, 78910tetrahydroazepino21bquinazolin126hone], the “% viability” value was 99.72%.

For the molecule `OC(CCCN1CCN(c2ncc(F)cn2)CC1)c1ccc(F)cc1` (stereo not shown) [ONC0003078, bmy14802], the “% viability” value came out at 69.85%.

Take `COc1cc(/C=C/C(N)=O)cc(OC)c1OC` [ONC0003157, cintriamide]: the “% viability” value is recorded as 86.24%.

In the case of `CN(C(=O)C(Cl)Cl)c1ccc(OC(=O)c2ccco2)cc1` [ONC0003891, diloxanide furoate], the “% viability” value came out at 73.42%.
